Seven substances from patent publication US5436221A (Fuji Photo Film Co., Ltd., priority 1991, dated 1995) can be followed below.

HELM strings list residues between dots; [ac] is acetyl, [am] amide, other brackets name non-standard units. * marks the point of attachment. Mts = Cc1cc(C)c(S(=O)(=O)*)c(C)c1; Boc = CC(C)(C)OC(=O)*; OBn = c1ccc(CO*)cc1; Bn = c1ccc(C*)cc1

The series in a line: general procedure: solution-phase peptide synthesis; DCC/HOBt; CDI.
Setting [1] is: late stage modification step, monosalt of acetic acid, hydrochloride.
[2] abbreviates: late stage modification step, acetic acid monosalt.
Setting [3] is: coupling step, monosalt of acetic acid, hydrochloride.

Turning to “PEPTIDE1{[GlcA-EG2-Suc].R.L.D.S}$$$$V2.0”, the step yield under setting [1] was 80%.

Regarding PEPTIDE1{[dR].L.D.S}$$$$V2.0, under setting [2], the step yield was found to be 84%.

For the substance “Boc-Asp(OBn)-Arg(Z2)-Leu-Asp(OBn)-Ser(Bn)-OBn”, the step yield under setting [3] is reported as 65%.

As to PEPTIDE1{R.L.D.S}$$$$V2.0, the step yield under setting [2] is on record as 82%.

Regarding “PEPTIDE1{[SulfoOBu].R.L.D.S}$$$$V2.0 [65]”, the step yield under setting [1] is 59%.

In the case of Boc-R(Mts)LD(OBn)S(Bn)-OBn, under setting [3], the step yield was 48%.

Take “t--Boc--Arg(Z2)--Leu--Asp(OBn)--Ser(Bn)--OBn”: under setting [3], the step yield is given as 38%.
